Laboratory results reported in publication PMC12179657.
Read-outs that look alike come from different tables or passages of the source. These are yes or no findings as the source states them, for the method shown. Binding seen in cells or lysates may run through a third protein. Some results given as binding are weak or reduced against the parent protein; the word gives no strength. Each block holds one molecule with its values, some of them ahead of it.

Sequences of proteins named here, by UniProt entry; tags and fusion partners are left off.
UniProt P61290: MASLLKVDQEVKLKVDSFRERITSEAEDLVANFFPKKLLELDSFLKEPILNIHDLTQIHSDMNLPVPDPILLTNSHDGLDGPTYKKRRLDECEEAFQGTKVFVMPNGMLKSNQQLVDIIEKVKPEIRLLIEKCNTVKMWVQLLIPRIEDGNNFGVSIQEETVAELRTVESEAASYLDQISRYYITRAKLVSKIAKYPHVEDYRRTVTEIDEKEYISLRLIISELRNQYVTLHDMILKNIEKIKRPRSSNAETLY
UniProt O35685: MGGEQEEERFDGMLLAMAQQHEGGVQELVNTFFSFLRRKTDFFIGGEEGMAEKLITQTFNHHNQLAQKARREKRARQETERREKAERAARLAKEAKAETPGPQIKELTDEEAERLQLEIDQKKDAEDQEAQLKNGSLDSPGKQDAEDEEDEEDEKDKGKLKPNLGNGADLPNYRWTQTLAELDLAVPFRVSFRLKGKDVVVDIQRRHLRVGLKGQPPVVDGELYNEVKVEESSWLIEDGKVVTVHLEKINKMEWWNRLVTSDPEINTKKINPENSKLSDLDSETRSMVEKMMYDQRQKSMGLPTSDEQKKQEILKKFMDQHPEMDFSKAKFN

Columns and labels:
FLAG-PSME3 [1] = target: FLAG-PSME3 (UniProt P61290); experiment: proximity ligation; DuoLink In Situ Orange kit in fixed cycling C2C12 cells transfected with FLAG-PSME3; primary antibodies against FLAG and the endogenous partner; controls omitted one or both antibodies
FLAG-PSME3 [2] = target: FLAG-PSME3 (UniProt P61290); experiment: as above; remark: listed apart in the source
[3] = target: proteasome activator complex subunit 3 (PSME3), endogenous (mouse (endogenous in C2C12)) (UniProt P61290); experiment: co-IP; endogenous PSME3 precipitated with a PSME3-specific antibody and Protein A Dynabeads from Day 0 C2C12 lysate (20 mM Tris-HCl pH 7.5, 100 mM NaCl, 1% NP-40, 1 mM EDTA; overnight at 4°C); Western blot for PSME3 and RPRD1A; isotype IgG control

binding (FLAG-PSME3 [1]): binds
Molecule: NUDC, endogenous (from UniProt O35685 1-332)

binding (FLAG-PSME3 [2]): binds
binding [3]: binds
B1: RPRD1A, endogenous (protein, UniProt Q8VDS4 1-312)
chain: MSAFSEAALEKKLSELSNSQQSVQTLSLWLIHHRKHSRPIVTVWERELRKAKPNRKLTFLYLANDVIQNSKRKGPEFTKDFAPVIVEAFKHVSSETDESCKKHLGRVLSIWEERSVYENDVLEQLKHALYGDKKARKRTYEQIKVDENENCSSLGSPSEPPQTLDLVRALQDLENAASGDAAVHQRIASLPVEVQEVSLLEKITDKESGERLSKMVEDACMLLADYNGRLAAEIDDRKQLTRMLADFLRCQKEALAEKEHKLEEYKRKLARVSLVRKELRARIQSLPDLSRLPNVTGSHMHLPFAGDIYSED
